From PMC6289461, “Mek1 coordinates meiotic progression with DNA break repair by directly phosphorylating and inhibiting the yeast pachytene exit regulator Ndt80”
These are yes or no findings as the source states them, for the method shown.

Chains of the proteins cited; added tags and fusions are not shown. Lines headed by an entry give the natural chain unless they say otherwise; changes in a name come on top.
UniProt P38830: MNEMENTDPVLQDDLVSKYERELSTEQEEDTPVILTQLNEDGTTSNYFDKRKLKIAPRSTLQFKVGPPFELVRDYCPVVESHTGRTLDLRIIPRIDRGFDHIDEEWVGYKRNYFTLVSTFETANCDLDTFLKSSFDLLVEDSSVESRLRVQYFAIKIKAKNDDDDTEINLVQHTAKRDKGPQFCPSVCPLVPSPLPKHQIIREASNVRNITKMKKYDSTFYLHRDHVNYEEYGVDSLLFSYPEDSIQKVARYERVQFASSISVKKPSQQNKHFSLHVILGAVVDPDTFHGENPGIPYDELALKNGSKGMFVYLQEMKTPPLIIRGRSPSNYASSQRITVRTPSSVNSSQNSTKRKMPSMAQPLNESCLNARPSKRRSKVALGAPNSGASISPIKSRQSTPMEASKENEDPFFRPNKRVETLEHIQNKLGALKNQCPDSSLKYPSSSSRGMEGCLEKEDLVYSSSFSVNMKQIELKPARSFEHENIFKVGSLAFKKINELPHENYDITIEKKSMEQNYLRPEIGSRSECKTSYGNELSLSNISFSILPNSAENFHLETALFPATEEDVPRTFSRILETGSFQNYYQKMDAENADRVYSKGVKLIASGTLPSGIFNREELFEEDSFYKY

Target: T1, lexA-Mek1 (yeast) (UniProt P24719)
T1 sequence: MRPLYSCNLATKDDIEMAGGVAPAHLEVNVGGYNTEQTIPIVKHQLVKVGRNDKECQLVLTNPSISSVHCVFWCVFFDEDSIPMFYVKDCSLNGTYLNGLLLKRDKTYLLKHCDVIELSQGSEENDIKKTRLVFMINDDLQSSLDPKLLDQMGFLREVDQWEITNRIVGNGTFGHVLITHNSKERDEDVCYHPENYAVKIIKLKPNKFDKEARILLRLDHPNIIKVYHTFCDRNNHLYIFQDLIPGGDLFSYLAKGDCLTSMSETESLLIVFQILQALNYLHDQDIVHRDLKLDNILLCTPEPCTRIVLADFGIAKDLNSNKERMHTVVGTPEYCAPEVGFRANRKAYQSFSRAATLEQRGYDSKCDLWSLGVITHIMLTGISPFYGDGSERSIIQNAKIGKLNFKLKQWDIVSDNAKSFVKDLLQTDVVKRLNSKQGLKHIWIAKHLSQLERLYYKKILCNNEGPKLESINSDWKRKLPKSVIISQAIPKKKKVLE
Assay: two-hybrid; directed test: lexA and GAD plasmids co-transformed into L40; ten-fold dilutions spotted on SD-Leu-Trp-His (HIS3) and beta-galactosidase filter assay (lacZ), 30°C

binding	Substance
no binding	GAD-NDT80-Δbc (from UniProt P38830) (domain or fragment)
no binding	GAD-NDT80-ΔRPSKR (from UniProt P38830) (domain or fragment)
